Source: publication PMC9539790
No constants are given. Whether binding was seen depends on the method and setting. Binding seen in cells or lysates may run through a third protein. Some binding calls cover weakened binding; strength is not graded here.

Chains of the proteins cited; added tags and fusions are not shown. Lines headed by an entry give the natural chain unless they say otherwise; changes in a name come on top. A line that says so, or that is headed by a name, gives the form on record, which may keep a tag or linker. Residues count along the entry.
CEACAM1-4L with a carboxyl terminus fused eYFP (CEACAM1-eYFP) (P13688, residues 35-526): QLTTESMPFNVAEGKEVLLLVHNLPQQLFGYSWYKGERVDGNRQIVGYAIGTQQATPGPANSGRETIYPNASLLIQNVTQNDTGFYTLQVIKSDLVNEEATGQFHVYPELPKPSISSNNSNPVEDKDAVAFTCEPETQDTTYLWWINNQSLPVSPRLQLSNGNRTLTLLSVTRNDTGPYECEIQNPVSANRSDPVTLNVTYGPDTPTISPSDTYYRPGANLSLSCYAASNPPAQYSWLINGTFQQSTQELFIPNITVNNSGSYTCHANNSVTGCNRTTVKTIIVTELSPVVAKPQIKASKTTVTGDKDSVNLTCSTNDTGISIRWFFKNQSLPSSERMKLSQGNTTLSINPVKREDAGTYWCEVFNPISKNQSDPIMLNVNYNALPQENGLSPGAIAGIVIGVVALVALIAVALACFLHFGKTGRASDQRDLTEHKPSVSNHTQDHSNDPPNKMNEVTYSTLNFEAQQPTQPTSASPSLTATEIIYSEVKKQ
CEACAM1 mutant (R43S/Q44L) (P13688, form named): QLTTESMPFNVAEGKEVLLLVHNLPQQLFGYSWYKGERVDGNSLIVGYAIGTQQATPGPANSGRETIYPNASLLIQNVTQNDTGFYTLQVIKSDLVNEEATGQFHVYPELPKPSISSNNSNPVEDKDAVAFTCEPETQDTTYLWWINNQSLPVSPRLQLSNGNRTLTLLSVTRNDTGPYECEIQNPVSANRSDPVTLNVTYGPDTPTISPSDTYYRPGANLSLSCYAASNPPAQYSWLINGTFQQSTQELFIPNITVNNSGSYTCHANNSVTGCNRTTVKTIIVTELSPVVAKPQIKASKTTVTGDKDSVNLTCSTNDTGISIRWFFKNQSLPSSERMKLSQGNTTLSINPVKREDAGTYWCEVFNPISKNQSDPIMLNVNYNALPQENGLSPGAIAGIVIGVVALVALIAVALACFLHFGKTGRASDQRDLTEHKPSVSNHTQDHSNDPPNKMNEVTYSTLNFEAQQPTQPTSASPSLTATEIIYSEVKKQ

Key:
[1] = molecular target: CEACAM1 mutant (R43S/Q44L) (UniProt P13688); experiment: FRET or BRET; TIRF homoFRET (steady-state fluorescence anisotropy of eYFP, pixel-wise anisotropy map) on HeLa cells expressing the eYFP fusion; live cells, also after fixation, permeabilisation and nanobody labelling
[2] = molecular target: CEACAM1-4L with a carboxyl terminus fused eYFP (CEACAM1-eYFP) (UniProt P13688); experiment: as above

Q: “CEACAM1 mutant (R43S/Q44L) (from UniProt P13688 35-526) (receptor)” was tested. Which binding [1] did it give?
A: binds

Q: With “CEACAM1-4L with a carboxyl terminus fused eYFP (CEACAM1-eYFP) (from UniProt P13688-1 35-526) (receptor)” as the substance, how does the binding [2] read?
A: binds
